Measurements: PMC5532214, “Natural variations in the biofilm-associated protein BslA from the genus Bacillus” (Scientific Reports, 2017)
Results are given in words; binding and its absence hold for the method and conditions named.

Target: YweA(31-155) (B. subtilis) (UniProt P39632)
Assay: SEC; purified, untagged mature regions of the proteins analysed by size exclusion chromatography; SDS-PAGE with and without β-mercaptoethanol was run alongside; both purified

B1: YweA(31-155) (domain or fragment, UniProt P39632 31-154)
chain: QSASIEAKTVNSTKEWTISDIEVTYKPNAVLSLGAVEFQFPDGFHATTRDSVNGRTLKETQILNDGKTVRLPLTLDLLGASEFDLVMVRKTLPRAGTYTIKGDVVNGLGIGSFYAETQLVIDPR
In the case of B1, the binding is reported as “no binding”.
